Measurements taken from paper PMC11982563.
Like-named read-outs stand apart in the source and are kept apart here. These are yes or no findings as the source states them, for the method shown. In cells and extracts the contact can be indirect. Some results given as binding are weak or reduced against the parent protein; the word gives no strength. Sequences can lack the tags named with a protein.

By UniProt entry, the sequences of proteins in these tests, tags left out.
UniProt Q80SW1: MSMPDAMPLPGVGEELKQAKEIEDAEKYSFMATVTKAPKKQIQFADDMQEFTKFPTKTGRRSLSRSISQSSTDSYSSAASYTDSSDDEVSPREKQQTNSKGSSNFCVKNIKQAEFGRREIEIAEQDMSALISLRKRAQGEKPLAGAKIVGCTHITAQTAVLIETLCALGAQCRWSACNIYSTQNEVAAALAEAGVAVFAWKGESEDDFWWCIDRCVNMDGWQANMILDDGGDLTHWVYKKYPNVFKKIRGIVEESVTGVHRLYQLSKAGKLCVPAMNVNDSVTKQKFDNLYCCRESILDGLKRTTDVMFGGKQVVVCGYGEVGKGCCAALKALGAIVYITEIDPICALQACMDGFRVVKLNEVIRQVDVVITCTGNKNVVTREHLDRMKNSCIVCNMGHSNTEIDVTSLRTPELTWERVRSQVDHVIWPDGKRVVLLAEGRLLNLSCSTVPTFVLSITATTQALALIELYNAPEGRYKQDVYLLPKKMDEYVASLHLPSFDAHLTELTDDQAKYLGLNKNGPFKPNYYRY

T1: ANO1-YFP (mouse) (UniProt Q8BHY3)
T1 sequence: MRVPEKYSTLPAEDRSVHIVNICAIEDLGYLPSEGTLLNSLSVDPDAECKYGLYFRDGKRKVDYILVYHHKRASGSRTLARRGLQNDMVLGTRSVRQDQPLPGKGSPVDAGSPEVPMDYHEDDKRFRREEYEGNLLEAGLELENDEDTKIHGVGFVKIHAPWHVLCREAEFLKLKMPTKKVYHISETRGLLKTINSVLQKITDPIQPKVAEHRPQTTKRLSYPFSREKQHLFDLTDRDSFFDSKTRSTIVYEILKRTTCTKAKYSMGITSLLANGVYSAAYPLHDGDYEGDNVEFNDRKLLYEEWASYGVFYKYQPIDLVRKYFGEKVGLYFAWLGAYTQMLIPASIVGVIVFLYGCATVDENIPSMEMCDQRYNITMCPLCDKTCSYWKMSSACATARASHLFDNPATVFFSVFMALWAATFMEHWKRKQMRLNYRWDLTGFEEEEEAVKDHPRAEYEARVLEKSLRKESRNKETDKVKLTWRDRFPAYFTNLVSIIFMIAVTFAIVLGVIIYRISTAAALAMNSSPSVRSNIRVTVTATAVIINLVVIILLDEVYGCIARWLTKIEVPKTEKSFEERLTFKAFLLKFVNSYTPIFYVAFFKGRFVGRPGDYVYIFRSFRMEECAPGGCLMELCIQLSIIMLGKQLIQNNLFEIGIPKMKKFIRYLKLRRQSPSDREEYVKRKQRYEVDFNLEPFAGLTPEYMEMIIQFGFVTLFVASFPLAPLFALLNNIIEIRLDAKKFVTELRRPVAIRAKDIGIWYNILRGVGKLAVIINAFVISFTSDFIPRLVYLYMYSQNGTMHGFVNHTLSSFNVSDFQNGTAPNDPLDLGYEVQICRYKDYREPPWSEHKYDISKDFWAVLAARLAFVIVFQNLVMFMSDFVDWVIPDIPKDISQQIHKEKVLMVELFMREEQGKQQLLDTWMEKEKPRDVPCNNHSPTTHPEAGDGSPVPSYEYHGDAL

T2: Myc-ANO1 (mouse) (UniProt Q8BHY3)
T2 sequence: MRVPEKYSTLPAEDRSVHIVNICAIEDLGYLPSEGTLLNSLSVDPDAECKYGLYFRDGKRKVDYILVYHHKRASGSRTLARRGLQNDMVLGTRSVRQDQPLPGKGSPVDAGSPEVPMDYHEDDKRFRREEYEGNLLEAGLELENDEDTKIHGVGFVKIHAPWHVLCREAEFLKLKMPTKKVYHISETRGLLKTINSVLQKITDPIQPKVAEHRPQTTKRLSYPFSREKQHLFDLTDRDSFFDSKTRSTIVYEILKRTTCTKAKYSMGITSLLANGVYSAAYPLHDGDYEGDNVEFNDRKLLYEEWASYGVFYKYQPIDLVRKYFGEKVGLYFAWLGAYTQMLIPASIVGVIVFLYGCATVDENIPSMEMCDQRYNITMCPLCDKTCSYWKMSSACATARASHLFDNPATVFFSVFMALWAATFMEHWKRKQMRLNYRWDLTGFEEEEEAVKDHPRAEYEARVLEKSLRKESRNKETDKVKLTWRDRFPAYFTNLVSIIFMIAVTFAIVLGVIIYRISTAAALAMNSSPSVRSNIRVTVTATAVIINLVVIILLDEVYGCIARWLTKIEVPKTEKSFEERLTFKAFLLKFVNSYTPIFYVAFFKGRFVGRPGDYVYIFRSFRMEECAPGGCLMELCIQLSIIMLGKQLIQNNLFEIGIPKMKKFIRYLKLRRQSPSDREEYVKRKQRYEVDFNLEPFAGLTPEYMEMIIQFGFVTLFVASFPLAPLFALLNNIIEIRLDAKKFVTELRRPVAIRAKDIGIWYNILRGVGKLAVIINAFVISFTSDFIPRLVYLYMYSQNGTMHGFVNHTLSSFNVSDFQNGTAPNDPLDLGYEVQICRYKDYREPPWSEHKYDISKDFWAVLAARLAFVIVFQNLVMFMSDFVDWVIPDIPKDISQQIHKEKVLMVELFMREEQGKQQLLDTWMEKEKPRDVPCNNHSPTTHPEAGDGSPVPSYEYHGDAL


Legend:
[1] = target: T1, ANO1-YFP (mouse); test: FRET or BRET; fluorescently tagged proteins co-expressed in HEK293 cells on glass-bottom dishes, live cells in bath solution; imaged before and after 2.5 uM forskolin + 50 uM IBMX; also with CPA, siRNA of ACs and AKAPs, STIM1-/- cells and co-expressed VAPA, E-Syt1, E-Syt2, AC8 or AKAP5
[2] = target: T2, Myc-ANO1 (mouse); test: co-IP; HEK293T cells transfected 18-24 h, vehicle or forskolin/IBMX 10 min at 37 C, surface biotinylated, lysed in 20 mM Tris, 150 mM NaCl, 2 mM EDTA, 1% Triton X-100; which protein was precipitated is not told
[3] = target: T2, Myc-ANO1 (mouse); test: as above; remark: listed apart in the source
[4] = target: T1, ANO1-YFP (mouse); test: FRET or BRET; fluorescently tagged proteins co-expressed in HEK293 cells on glass-bottom dishes, live cells in bath solution; imaged before and after 2.5 uM forskolin + 50 uM IBMX; also with CPA, siRNA of ACs and AKAPs, STIM1-/- cells and co-expressed VAPA, E-Syt1, E-Syt2, AC8 or AKAP5; remark: listed apart in the source

| Molecule | binding [1] | binding [2] | binding [3] | binding [4] |
| --- | --- | --- | --- | --- |
| IRBIT-CFP (from UniProt Q80SW1 1-530) | binds |  |  |  |
| Flag-IRBIT (from UniProt Q80SW1 1-530) |  | binds |  |  |
| E-Syt2 (protein, UniProt A0FGR8 1-921) MTANRDAALSSHRHPGCAQRPRTPTFASSSQRRSAFGFDDGNFPGLGERSHAPGSRLGARRRAKTARGLRGHRQRGAGAGLSRPGSARAPSPPRPGGPENPGGVLSVELPGLLAQLARSFALLLPVYALGYLGLSFSWVLLALALLAWCRRSRGLKALRLCRALALLEDEERVVRLGVRACDLPAWVHFPDTERAEWLNKTVKHMWPFICQFIEKLFRETIEPAVRGANTHLSTFSFTKVDVGQQPLRINGVKVYTENVDKRQIILDLQISFVGNCEIDLEIKRYFCRAGVKSIQIHGTMRVILEPLIGDMPLVGALSIFFLRKPLLEINWTGLTNLLDVPGLNGLSDTIILDIISNYLVLPNRITVPLVSEVQIAQLRFPVPKGVLRIHFIEAQDLQGKDTYLKGLVKGKSDPYGIIRVGNQIFQSRVIKENLSPKWNEVYEALVYEHPGQELEIELFDEDPDKDDFLGSLMIDLIEVEKERLLDEWFTLDEVPKGKLHLRLEWLTLMPNASNLDKVLTDIKADKDQANDGLSSALLILYLDSARNLPSGKKISSNPNPVVQMSVGHKAQESKIRYKTNEPVWEENFTFFIHNPKRQDLEVEVRDEQHQCSLGNLKVPLSQLLTSEDMTVSQRFQLSNSGPNSTIKMKIALRVLHLEKRERPPDHQHSAQVKRPSVSKEGRKTSIKSHMSGSPGPGGSNTAPSTPVIGGSDKPGMEEKAQPPEAGPQGLHDLGRSSSSLLASPGHISVKEPTPSIASDISLPIATQELRQRLRQLENGTTLGQSPLGQIQLTIRHSSQRNKLIVVVHACRNLIAFSEDGSDPYVRMYLLPDKRRSGRRKTHVSKKTLNPVFDQSFDFSVSLPEVQRRTLDVAVKNSGGFLSKDKGLLGKVLVALASEELAKGWTQWYDLTEDGTRPQAMT |  |  | binds | binds |
| E-Syt1 (protein, UniProt Q9BSJ8 1-1104) MERSPGEGPSPSPMDQPSAPSDPTDQPPAAHAKPDPGSGGQPAGPGAAGEALAVLTSFGRRLLVLIPVYLAGAVGLSVGFVLFGLALYLGWRRVRDEKERSLRAARQLLDDEEQLTAKTLYMSHRELPAWVSFPDVEKAEWLNKIVAQVWPFLGQYMEKLLAETVAPAVRGSNPHLQTFTFTRVELGEKPLRIIGVKVHPGQRKEQILLDLNISYVGDVQIDVEVKKYFCKAGVKGMQLHGVLRVILEPLIGDLPFVGAVSMFFIRRPTLDINWTGMTNLLDIPGLSSLSDTMIMDSIAAFLVLPNRLLVPLVPDLQDVAQLRSPLPRGIIRIHLLAARGLSSKDKYVKGLIEGKSDPYALVRLGTQTFCSRVIDEELNPQWGETYEVMVHEVPGQEIEVEVFDKDPDKDDFLGRMKLDVGKVLQASVLDDWFPLQGGQGQVHLRLEWLSLLSDAEKLEQVLQWNWGVSSRPDPPSAAILVVYLDRAQDLPLKKGNKEPNPMVQLSIQDVTQESKAVYSTNCPVWEEAFRFFLQDPQSQELDVQVKDDSRALTLGALTLPLARLLTAPELILDQWFQLSSSGPNSRLYMKLVMRILYLDSSEICFPTVPGCPGAWDVDSENPQRGSSVDAPPRPCHTTPDSQFGTEHVLRIHVLEAQDLIAKDRFLGGLVKGKSDPYVKLKLAGRSFRSHVVREDLNPRWNEVFEVIVTSVPGQELEVEVFDKDLDKDDFLGRCKVRLTTVLNSGFLDEWLTLEDVPSGRLHLRLERLTPRPTAAELEEVLQVNSLIQTQKSAELAAALLSIYMERAEDLPLRKGTKHLSPYATLTVGDSSHKTKTISQTSAPVWDESASFLIRKPHTESLELQVRGEGTGVLGSLSLPLSELLVADQLCLDRWFTLSSGQGQVLLRAQLGILVSQHSGVEAHSHSYSHSSSSLSEEPELSGGPPHITSSAPELRQRLTHVDSPLEAPAGPLGQVKLTLWYYSEERKLVSIVHGCRSLRQNGRDPPDPYVSLLLLPDKNRGTKRRTSQKKRTLSPEFNERFEWELPLDEAQRRKLDVSVKSNSSFMSRERELLGKVQLDLAETDLSQGVARWYDLMDNKDKGSS |  |  | binds | binds |
